# Article PMC10985091
# Chains of the proteins cited; added tags and fusions are not shown. Lines headed by an entry give the natural chain unless they say otherwise; changes in a name come on top. Residues count along the entry.
# UniProt Q13309: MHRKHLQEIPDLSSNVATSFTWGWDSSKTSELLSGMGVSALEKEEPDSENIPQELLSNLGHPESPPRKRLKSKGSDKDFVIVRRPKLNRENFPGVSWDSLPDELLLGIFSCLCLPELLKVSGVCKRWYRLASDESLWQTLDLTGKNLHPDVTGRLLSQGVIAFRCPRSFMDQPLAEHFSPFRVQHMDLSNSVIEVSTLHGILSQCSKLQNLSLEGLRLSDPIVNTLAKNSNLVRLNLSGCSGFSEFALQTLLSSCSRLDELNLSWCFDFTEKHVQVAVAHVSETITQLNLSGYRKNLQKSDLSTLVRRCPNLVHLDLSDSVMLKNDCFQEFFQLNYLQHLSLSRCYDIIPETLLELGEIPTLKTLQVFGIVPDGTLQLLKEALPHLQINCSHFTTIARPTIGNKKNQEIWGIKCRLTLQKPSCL
# Skp2^Δ45 (N-terminal aa1-45 deletion mutant): residues 46-424 of Q13309
# UniProt P18754: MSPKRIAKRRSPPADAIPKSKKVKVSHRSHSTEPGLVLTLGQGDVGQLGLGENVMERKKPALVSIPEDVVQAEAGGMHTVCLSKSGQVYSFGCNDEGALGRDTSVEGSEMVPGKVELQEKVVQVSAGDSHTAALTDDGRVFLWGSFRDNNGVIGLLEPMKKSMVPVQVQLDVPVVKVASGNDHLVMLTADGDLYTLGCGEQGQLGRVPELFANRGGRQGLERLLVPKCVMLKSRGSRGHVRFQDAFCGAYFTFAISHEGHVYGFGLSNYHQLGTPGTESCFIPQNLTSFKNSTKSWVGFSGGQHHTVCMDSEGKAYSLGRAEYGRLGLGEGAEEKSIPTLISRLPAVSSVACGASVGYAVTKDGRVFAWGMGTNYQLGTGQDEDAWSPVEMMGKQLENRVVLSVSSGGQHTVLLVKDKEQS
# No constants are given. Whether binding was seen depends on the method and setting. In cells and extracts the contact can be indirect. Some binding calls cover weakened binding; strength is not graded here.
# Legend:
# [1] = target: Skp2^Δ45 (N-terminal aa1-45 deletion mutant) (UniProt Q13309); assay: co-IP; exogenous co-immunoprecipitation from HEK 293T cells transfected 48 h; IP buffer 250 mM NaCl, 50 mM Tris, 0.5 mM EDTA, 0.5% NP-40; indicated antibody and protein A-agarose overnight at 4 °C; RCC1 detected by anti-flag (M2), Skp2 by anti-myc
# Myc-Skp2 (Skp2^WT) = Myc-Skp2 (Skp2^WT) (UniProt Q13309); assay: as above
# [2] = target: S-phase kinase-associated protein-2 (Skp2), endogenous (human (endogenous in SW872)) (UniProt Q13309); assay: co-IP; endogenous co-immunoprecipitation from total protein of SW872 cells (shRCC1 or shScr); IP buffer 250 mM NaCl, 50 mM Tris, 0.5 mM EDTA, 0.5% NP-40; indicated antibody and protein A-agarose overnight at 4 °C; western blot
binding [1],binding (Myc-Skp2 (Skp2^WT)),binding [2],Substance
no binding,binds,,Flag-RCC1 (from UniProt P18754 1-421)
,,binds,"Regulator of chromosome condensation 1 (RCC1), endogenous (from UniProt P18754 1-421)"
